PubChem BioAssay AID1259405, NCATS, 2018
Here is a random part of about 50,000 deposited reagents. Of all reagents, about 4,000 (8%) are marked active. 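Mouse siRNA library applied to hamster cells; one well for each siRNA.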 The numbers tell different reagents against one gene apart.

Aim: 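Mouse-designed siRNAs used to find CHO productivity engineering targets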 (primary screen)
Cell system: Chinese hamster CHO-K1 ovary cells with stable secreted eGFP expression
Reagents: single siRNA against mouse genes, 0.8 pmol siRNA per well (2 µl of 400 nM stock)
Duration: 3 days
Detection: 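Percent of the per-plate non-targeting control median for intracellular GFP per well by laser scanning cytometry and for cell viability by ATP luminescence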
Scale: GFP, % of control: higher = more GFP per well, higher productivity; viability (ATP), % of control: higher = more viable cells (more ATP)
Call rule: 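a knock-down is called active if GFP reaches 120% or more of non-targeting control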

Gene | siRNA no. | GFP, % of control | viability (ATP), % of control | activity call
Clec7a | 1 | 98.1 | 83 | inactive
Clec7a | 2 | 116 | 90.5 | inactive
Clec7a | 3 | 98.8 | 92.9 | inactive
Dgcr2 | 1 | 69.9 | 98.3 | inactive
Dgcr2 | 2 | 58.6 | 84.4 | inactive
Dgcr2 | 3 | 127 | 55.2 | active
Or10d3 | 1 | 70.9 | 68.1 | inactive
Or10d3 | 2 | 63.6 | 74.7 | inactive
Or10d3 | 3 | 53.9 | 55.1 | inactive
Dcxr | 1 | 54.4 | 89 | inactive
Dcxr | 2 | 101 | 73.8 | inactive
Dcxr | 3 | 55.2 | 57.6 | inactive
Ttll6 | 1 | 123 | 84.8 | active
Ttll6 | 2 | 117 | 111 | inactive
Ttll6 | 3 | 64.9 | 49.2 | inactive
Engase | 1 | 78.9 | 130 | inactive
Engase | 2 | 69.4 | 49 | inactive
Engase | 3 | 85.1 | 96.6 | inactive
Or8b38 | 1 | 74.5 | 89.1 | inactive
Or8b38 | 2 | 72.4 | 61.5 | inactive
Or8b38 | 3 | 65.5 | 95 | inactive
Cbr2 | 1 | 54.9 | 83.7 | inactive
Cbr2 | 2 | 61.8 | 67.8 | inactive
Cbr2 | 3 | 43.5 | 33.7 | inactive
Prxl2a | 1 | 68.8 | 65.2 | inactive
Prxl2a | 2 | 54.6 | 75.1 | inactive
Prxl2a | 3 | 93.2 | 98.2 | inactive
Celf6 | 1 | 80 | 84.9 | inactive
Celf6 | 2 | 117 | 92 | inactive
Celf6 | 3 | 162 | 120 | active
Rdh16 | 1 | 53.2 | 42.7 | inactive
Rdh16 | 2 | 79.4 | 83.2 | inactive
Rdh16 | 3 | 84 | 64.5 | inactive
Grb14 | 1 | 97.9 | 86.4 | inactive
Grb14 | 2 | 84.2 | 68.3 | inactive
Grb14 | 3 | 81.5 | 118 | inactive
Arpc5 | 1 | 49.7 | 46.2 | inactive
Arpc5 | 2 | 73.2 | 61.8 | inactive
Arpc5 | 3 | 48.8 | 58.9 | inactive
Map3k9 | 1 | 97.4 | 85.5 | inactive
Map3k9 | 2 | 61.7 | 64.1 | inactive
Map3k9 | 3 | 90.9 | 90.6 | inactive
Ppard | 1 | 47.2 | 48 | inactive
Ppard | 2 | 136 | 92.3 | active
Ppard | 3 | 84.2 | 50 | inactive
Adgb | 1 | 82.2 | 78.3 | inactive
Adgb | 2 | 131 | 99 | active
Adgb | 3 | 169 | 141 | active
Kcng4 | 1 | 46.9 | 40.7 | inactive
Kcng4 | 2 | 53.6 | 58.3 | inactive
Kcng4 | 3 | 98.9 | 93.6 | inactive
Maff | 1 | 57.5 | 55.5 | inactive
Maff | 2 | 63 | 82.1 | inactive
Maff | 3 | 62.7 | 77.9 | inactive
Fbln7 | 1 | 95.6 | 103 | inactive
Fbln7 | 2 | 80.4 | 84.2 | inactive
Fbln7 | 3 | 37.6 | 42.5 | inactive
Rassf9 | 1 | 69.4 | 84.8 | inactive
Rassf9 | 2 | 69.2 | 55.7 | inactive
Ccl2 | 1 | 112 | 103 | inactive
Ccl2 | 2 | 65.6 | 90.1 | inactive
Slc17a8 | 1 | 96.3 | 73.5 | inactive
Slc17a8 | 2 | 114 | 73.9 | inactive
Slc17a8 | 3 | 62.7 | 60.3 | inactive
Pou4f2 | 1 | 78 | 84.5 | inactive
Pou4f2 | 2 | 72.3 | 89.4 | inactive
Pou4f2 | 3 | 66.3 | 81.3 | inactive
Adra1d | 1 | 56.4 | 79.8 | inactive
Adra1d | 2 | 68.9 | 69.5 | inactive
Adra1d | 3 | 46.7 | 37.6 | inactive
Zfp207 | 1 | 69.6 | 48.3 | inactive
Zfp207 | 2 | 168 | 72.6 | active
Zfp207 | 3 | 108 | 106 | inactive
Xlr4c | 1 | 51.5 | 72.1 | inactive
Xlr4c | 2 | 51.1 | 44 | inactive
Xlr4c | 3 | 78.2 | 63.7 | inactive
Tcf7 | 1 | 107 | 91.5 | inactive
Tcf7 | 2 | 118 | 81 | inactive
Myo6 | 1 | 72.7 | 62.9 | inactive
Myo6 | 2 | 102 | 85 | inactive
Myo6 | 3 | 98.7 | 84.6 | inactive
Ndst3 | 1 | 135 | 104 | active
Ndst3 | 2 | 102 | 187 | inactive
Ndst3 | 3 | 76.7 | 65.8 | inactive

Only “viability (ATP), % of control” (9 entries from above):
Dcxr #3: 57.6
Ttll6 #1: 84.8
Ttll6 #2: 111
Ttll6 #3: 49.2
Engase #1: 130
Engase #2: 49
Engase #3: 96.6
Or8b38 #1: 89.1
Or8b38 #2: 61.5
